# Values from PubChem BioAssay AID720505 (Drosophila RNAi Screening Center, 2013).
# Aim: 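Fly regulators or components of the CRAC channel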 (primary screen)
# System: Drosophila S2R+ cells
# Reagent: long dsRNA against Drosophila genes
# Conditions: thapsigargin (2 µM) in calcium-free buffer to empty internal stores, then 2 mM calcium added back
# Detection: 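Fluo-4 signal in 384-well plates read on a FLIPR after thapsigargin (2 µM, calcium-free) store depletion and 2 mM calcium add-back; unnormalised mean endpoint per well; screen run twice, selected wells retested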
# Reading the numbers: calcium signal and retest calcium signal: higher = more calcium entry after store depletion
# Call rule: 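Knock-downs counted as hits when calcium entry dropped relative to STIM1 positive and Rho1 negative controls present on each plate; roughly 1500 genes called, with reductions of differing size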
# Calls: active = called as lowering calcium entry; inactive = not called
# The screen tested about 20,000 reagents; shown is an unselected part of those with a known target gene and a result. Of all reagents, about 2,100 (10%) are marked active. 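Raw plate signals without normalisation; calls rest on control-based scores that were not deposited; replicate 2 separates called from uncalled poorly.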 Names joined by + are all predicted targets of the reagent. The record does not give: the amount of reagent, the time to read-out.
target gene,amplicon,"calcium signal, replicate 1","calcium signal, replicate 2","retest calcium signal, replicate 1","retest calcium signal, replicate 2",activity call
ValRS-m,DRSC10535,85.5,66,,,inactive
pk,DRSC06178,134,109,,,inactive
pk,DRSC07664,110,162,,,inactive
pk,DRSC22156,105,192,,,inactive
Spn53F,DRSC06022,102,195,,,inactive
Mpi,DRSC16417,140,118,,,inactive
CAH8,DRSC15784,183,135,,,inactive
CG5390,DRSC02855,198,156,,,inactive
Tsp68C,DRSC09295,,,,,active
Pkc98E,DRSC16791,71,80.4,,,inactive
CG13539,DRSC04181,83.5,135,,,inactive
spin,DRSC07176,158,82.5,99.7,110,inactive
spin,DRSC22271,102,135,,,inactive
Asx,DRSC05924,80.1,119,,,inactive
CG11417,DRSC18581,111,121,,,inactive
CG3719,DRSC18493,139,134,,,inactive
Fak,DRSC07426,206,156,,,inactive
fzy,DRSC03534,48.3,36.3,,,active
CG42697,DRSC05740,105,133,,,inactive
Kua,DRSC02100,97.6,129,,,inactive
CG11696,DRSC19417,177,98,,,inactive
CG13841,DRSC14691,126,125,,,inactive
Arl6IP1,DRSC14231,143,139,,,inactive
Rae1,DRSC04577,89.7,95.7,,,inactive
crb,DRSC16927,144,278,,,inactive
CG14983,DRSC08441,93.5,81.3,,,inactive
CG43367,DRSC08299,103,97.5,,,inactive
CG43367,DRSC08301,94.4,119,,,inactive
CG43367,DRSC08309,93.4,85.5,,,inactive
Gasp,DRSC12349,117,148,,,inactive
Cyp1,DRSC20234,125,106,,,inactive
mew,DRSC18971,,,,,inactive
mew,DRSC20352,123,96.9,,,inactive
CG15734,DRSC19701,125,99.5,,,inactive
CG12477,DRSC09886,99.4,173,,,inactive
Fis1,DRSC07772,95,140,,,inactive
CG12998,DRSC19518,84.1,128,,,inactive
Pkcdelta,DRSC19356,67,84.9,,,active
Pkcdelta,DRSC19399,93.4,77.8,,,inactive
rngo,DRSC19903,141,153,,,inactive
CG8773,DRSC16444,97.1,103,,,inactive
Faf2,DRSC03325,111,88,,,inactive
CG5078,DRSC11762,99,179,,,inactive
Yod1,DRSC10433,103,113,,,inactive
sna,DRSC03613,156,120,,,inactive
CG42541,DRSC17973,154,119,,,inactive
CG42541,DRSC18119,61.1,101,,,active
CG42541,DRSC18120,169,113,,,inactive
glob3,DRSC12261,121,210,,,inactive
CG13124,DRSC02220,103,113,,,inactive
Rh5,DRSC03412,93.6,86.9,,,inactive
CG13771,DRSC02277,134,114,,,inactive
CG31262,DRSC13216,,,,,active
RYa-R,DRSC16757,117,147,,,inactive
MED27,DRSC12205,145,115,,,inactive
RpL23,DRSC04648,108,221,,,inactive
igl,DRSC07631,98.3,108,,,inactive
CG2841,DRSC17699,9411,156,,,inactive
CG2841,DRSC18824,67,119,,,inactive
CG2841,DRSC22106,145,79.2,,,active
Gbp1,DRSC06592,126,146,,,inactive
Sps2,DRSC03441,142,151,,,inactive
CG30031 + deltaTry + gammaTry,DRSC07622,85.8,176,,,inactive
Klp67A + CG34456,DRSC10420,83.1,83.5,,,inactive
CG14506,DRSC14858,111,129,,,inactive
PNPase,DRSC14304,81.3,84.5,,,inactive
Ance-5,DRSC04055,105,103,,,inactive
Karl,DRSC19883,197,141,,,inactive
spd-2,DRSC09682,88.3,107,,,inactive
CG8089,DRSC07074,118,176,,,inactive
Dap160,DRSC01834,77,4005,,,inactive
Dap160,DRSC03313,119,144,,,inactive
Gbs-76A,DRSC11081,101,114,,,inactive
whd,DRSC07351,145,194,,,inactive
CG14374,DRSC14834,120,202,,,inactive
CG4455,DRSC01983,101,94.3,83.1,96.9,inactive
CG4455,DRSC21684,200,109,,,inactive
CG15208,DRSC19654,103,94.3,,,inactive
Acyp,DRSC01861,67.5,107,,,active
CG7966,DRSC16356,116,102,,,inactive
Calr,DRSC16614,131,91.3,,,inactive
CG15548,DRSC15086,166,157,,,inactive
CG17600,DRSC20638,137,80.7,,,inactive
CG17600,DRSC20640,139,94,,,inactive
CG17600,DRSC22753,121,153,,,inactive
mRpS29,DRSC04398,201,82.4,,,inactive
Hsp23,DRSC11188,121,132,,,inactive
Mal-A1,DRSC07461,112,123,,,inactive
cert,DRSC09674,63.1,82,,,active
mor,DRSC15378,116,109,,,inactive
CG2233,DRSC18217,86.2,93.5,,,inactive
acs,DRSC08185,64.7,114,,,inactive
CG40948 (retired record),DRSC20944,97,9818,,,inactive
CG1136,DRSC08184,137,84.9,,,inactive
Ac3,DRSC03692,189,115,,,inactive
CG17780,DRSC15265,218,115,,,inactive
COX7A,DRSC16514,102,88.2,,,inactive
CG3226,DRSC18296,194,113,,,inactive
CG4004,DRSC19791,179,117,,,inactive
CG4004,DRSC19882,61.4,88.1,,,active
ppk21,DRSC14466,122,108,,,inactive
CG43393,DRSC03917,74,6063,,,inactive
CG7448 (retired record),DRSC11828,98,131,,,inactive
CG7448 (retired record),DRSC22485,122,186,,,inactive
CG1024,DRSC12496,130,130,,,inactive
CG10469,DRSC09729,109,60.6,,,inactive

Ordered by “calcium signal, replicate 2” (low to high): 5 of the entries above.
target gene,amplicon,"calcium signal, replicate 1","calcium signal, replicate 2","retest calcium signal, replicate 1","retest calcium signal, replicate 2",activity call
Rae1,DRSC04577,89.7,95.7,,,inactive
CG11696,DRSC19417,177,98,,,inactive
CG13841,DRSC14691,126,125,,,inactive
Arl6IP1,DRSC14231,143,139,,,inactive
crb,DRSC16927,144,278,,,inactive
